From patent US7598412B2, “Modulators of ATP-binding cassette transporters” (Vertex Pharmaceuticals Incorporated, priority 2003, dated 2009)
At least one structure is not confirmed: it was looked up by name or label, or the drawing left a doubt.

Chains of the proteins cited; added tags and fusions are not shown. Lines headed by an entry give the natural chain unless they say otherwise; changes in a name come on top. A line that says so, or that is headed by a name, gives the form on record, which may keep a tag or linker.
UniProt P13569, with tags, fused parts or gaps DEL508-508: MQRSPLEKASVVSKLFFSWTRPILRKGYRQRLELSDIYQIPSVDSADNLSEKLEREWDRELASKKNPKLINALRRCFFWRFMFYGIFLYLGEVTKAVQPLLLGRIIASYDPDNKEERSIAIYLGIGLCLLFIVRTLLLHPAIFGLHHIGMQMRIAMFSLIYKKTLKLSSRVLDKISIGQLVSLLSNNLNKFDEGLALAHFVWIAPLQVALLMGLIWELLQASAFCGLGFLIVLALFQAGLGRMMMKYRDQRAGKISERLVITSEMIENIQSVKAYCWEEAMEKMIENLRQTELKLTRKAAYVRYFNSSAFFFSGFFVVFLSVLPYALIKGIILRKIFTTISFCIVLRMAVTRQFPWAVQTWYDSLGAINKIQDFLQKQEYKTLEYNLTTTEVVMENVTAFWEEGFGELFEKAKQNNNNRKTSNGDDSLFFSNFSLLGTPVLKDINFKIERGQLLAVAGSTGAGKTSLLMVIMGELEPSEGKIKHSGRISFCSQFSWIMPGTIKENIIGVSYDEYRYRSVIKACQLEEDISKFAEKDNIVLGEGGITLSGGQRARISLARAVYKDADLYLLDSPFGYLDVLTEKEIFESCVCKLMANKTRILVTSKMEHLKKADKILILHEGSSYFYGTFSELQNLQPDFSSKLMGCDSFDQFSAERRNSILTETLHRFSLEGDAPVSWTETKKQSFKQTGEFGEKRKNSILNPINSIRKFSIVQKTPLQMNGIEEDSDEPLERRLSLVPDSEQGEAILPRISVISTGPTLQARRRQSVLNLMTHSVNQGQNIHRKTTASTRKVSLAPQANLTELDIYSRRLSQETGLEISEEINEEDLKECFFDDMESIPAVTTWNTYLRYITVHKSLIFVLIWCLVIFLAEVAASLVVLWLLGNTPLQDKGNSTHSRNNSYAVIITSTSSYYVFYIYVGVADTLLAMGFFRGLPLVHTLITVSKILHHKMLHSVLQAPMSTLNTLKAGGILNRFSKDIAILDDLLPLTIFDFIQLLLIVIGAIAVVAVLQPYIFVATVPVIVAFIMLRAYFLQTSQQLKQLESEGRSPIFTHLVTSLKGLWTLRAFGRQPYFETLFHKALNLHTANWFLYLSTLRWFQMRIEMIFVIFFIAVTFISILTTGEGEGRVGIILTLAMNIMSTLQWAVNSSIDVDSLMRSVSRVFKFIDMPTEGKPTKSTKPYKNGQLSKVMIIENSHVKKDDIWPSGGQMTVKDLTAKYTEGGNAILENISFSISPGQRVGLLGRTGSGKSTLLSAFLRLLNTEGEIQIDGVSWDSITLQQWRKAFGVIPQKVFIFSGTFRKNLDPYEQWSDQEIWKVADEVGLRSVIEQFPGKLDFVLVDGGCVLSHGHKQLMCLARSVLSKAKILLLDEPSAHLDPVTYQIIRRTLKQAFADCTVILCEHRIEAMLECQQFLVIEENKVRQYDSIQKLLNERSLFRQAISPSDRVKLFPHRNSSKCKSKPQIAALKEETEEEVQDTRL

Experiments:
cAMP levels in FRT cells = assay: Tropix assay for measurement of cAMP in FRT cells; format: cell-based, rat; conditions: n=4
Description: In the following example, the effect on cAMP levels by three structurally similar compounds from Table 1 were determined using the cAMP levels from 20 μM forskolin as the normalized reference measure.
The level of cAMP in FRT cells following 0.5 μM forskolin or test compound application was determined using a commercially available chemiluminiscent immunoassay system for mammalian cells called Tropix® (Applied Biosystems, Bedford, Mass.). Briefly, FRT cells were incubated for 15 minutes with a test compound in the presence and absence of 0.5 μM forskolin. The compounds were aspirated and the cells were then lysed and transferred along with the lysis buffer to a 96-well Tropix® ELISA plate. A cAMP-Alk Phos conjugate is then added to the assay plate, followed by the addition of cAMP anti-body. After several wash and aspiration steps, Sapphire blue II solution is added and the […], and the cAMP concentrations were determined using a cAMP standard curve that was present in each plate.

ΔF508-CFTR = ΔF508-CFTR (Homo sapiens, UniProt P13569, DEL508-508); conditions: reported in the literature; cited from earlier work
cellular cAMP = conditions: reported in the literature, cited from earlier work

## COc1ccc(C2(CNC(=O)c3cc4ccccc4o3)CCCC2)cc1OC [Compound 7, N-((1-(3,4-dimethoxyphenyl)-cyclopentyl)methyl)benzofuran-2-carboxamide]
cAMP levels in FRT cells; compound alone
  change of cAMP compared with the DMSO control: significant increase
cAMP levels in FRT cells; compound in the presence of 0.5 μM forskolin
  change of cAMP compared with the 0.5 μM forskolin control: significant increase
ΔF508-CFTR
  reported activity on ΔF508-CFTR: potentiator of ΔF508-CFTR
Cellular cAMP; compound alone
  effect on cAMP content: increase cAMP content alone
Cellular cAMP; with low concentration (0.5 μM) of forskolin, similar to that found for 20 μM forskolin
  effect on cAMP elevation by forskolin: potentiated the cAMP elevation
